Measured values taken from PMC12542728.

Test system: LeCzcR (phosphorylated with acetyl phosphate) (Lysobacter enzymogenes YC36)
Experiment: EMSA
Settings: 30 mM acetyl phosphate, EMSA 10 uL, 20 ng biotin-DNA, 20 ng unlabeled competitor or 40 ng unrelated DNA, 25 C 30 min, 6% native PAGE, recombinant protein, residues 1-224, label: 5'-biotin on forward primer, probe letters rebuilt from the primers and the genome

Row | Sequence | binding result
1 | GGGTCGCCGATGATCGCGCAACCGCGCGCCGCGCTGAACCCTCTTTTGGCGGAGGCCGCGCCGCGCACGGGCCAAGCCGGCAGATGCGGTAAACCCCGGGGCGCGCATTCAGCTTCGACGGTAATCGCTTTCTTCCGCATCCGCGCCGGCGCGCGCGGCCCGGCATGGACGATCTGCGGCGCCGATCACTGACAGCGCTGTCAGCCACGGGACAAGGTGCGGCCCGT (double strand) [LegluB promoter] | binds
2 | TGGTGGTGGTCGGCCCGGTTATGCGCTCGCGCGCTCCGTGACGGCCGGACAGAGTGCTGCAGATAATGCCGGCGAATATTCGCGGCTAGGCCGCGGCGCCGTCAAAGGCGCAGGCCCGATTATCCTGCGACGCGGATCATTCTTTGGAAT (double strand) [Lehsaf promoter] | binds
3 | GGCCGGGTGAGTTTTGGTGAGCGAAGGTGAAGCAGATGAACGCCAGAGGCCGGCATTCGCGCATGCTGCTGGCATTATTTGTGGAAATTTCGATCACTCTTGATGCGCACGGCACCGCCGCGCGCGGGATCGTCCGCGCTCGAGGACCGCGACCGCACGGCGGCGACTCGCGAACCGCAGGCGTCGGCGCGGCCCACCCGCCCTGGCGATCCGGTCTAGCCGCAATCCGCCCCTACCA (double strand) [Lepsl promoter] | binds

Construct, isoform or probe ends are uncertain for at least one entry.
